Experimental data from article PMC6602968.

T1: AsaA 25th–110th aa fused to pBT (Acinetobacter baumannii ATCC 17978) (UniProt R9RHI2)
T1 sequence: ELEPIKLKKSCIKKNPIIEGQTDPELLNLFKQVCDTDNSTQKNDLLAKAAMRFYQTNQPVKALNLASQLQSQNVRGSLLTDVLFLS

T2: AsaA 70th–110th aa fused to pBT (Acinetobacter baumannii ATCC 17978) (UniProt R9RHI2)
T2 sequence: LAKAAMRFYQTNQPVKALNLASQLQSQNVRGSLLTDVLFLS

T3: AsaA 70th–150th aa fused to pBT (Acinetobacter baumannii ATCC 17978) (UniProt R9RHI2)
T3 sequence: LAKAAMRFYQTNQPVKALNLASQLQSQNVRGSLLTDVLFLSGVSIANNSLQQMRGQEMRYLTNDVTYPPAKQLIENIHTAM

T4: AsaA 110th–150th aa fused to pBT (Acinetobacter baumannii ATCC 17978) (UniProt R9RHI2)
T4 sequence: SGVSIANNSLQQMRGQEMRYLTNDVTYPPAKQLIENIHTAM

T5: AsaA 25th–150th aa fused to pBT (Acinetobacter baumannii ATCC 17978) (UniProt R9RHI2)
T5 sequence: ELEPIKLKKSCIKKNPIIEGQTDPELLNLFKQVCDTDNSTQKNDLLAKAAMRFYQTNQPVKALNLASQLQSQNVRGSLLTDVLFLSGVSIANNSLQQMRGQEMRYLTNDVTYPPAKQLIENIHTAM

T6: AsaA 25th–190th aa fused to pBT (Acinetobacter baumannii ATCC 17978) (UniProt R9RHI2)
T6 sequence: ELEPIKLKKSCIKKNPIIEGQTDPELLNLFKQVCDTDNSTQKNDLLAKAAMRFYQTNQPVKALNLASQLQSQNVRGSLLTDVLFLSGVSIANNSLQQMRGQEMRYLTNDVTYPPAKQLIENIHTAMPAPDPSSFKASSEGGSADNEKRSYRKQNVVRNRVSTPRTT

T7: AsaA 25th–70th aa fused to pBT (Acinetobacter baumannii ATCC 17978) (UniProt R9RHI2)
T7 sequence: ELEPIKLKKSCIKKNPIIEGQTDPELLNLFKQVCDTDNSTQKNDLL

B1: TssL fused to pTRG (plasmid pTL) (protein, UniProt R9RHK3 1-268)
chain: MSQSTGAPSLFDDGQIGTGGNNNSQSQAKLQAINLIDLLHDGFYLIFLIRNQYVPADPQRFREKILDLLNRFEQQAKKLQFSADDIHDAKYAFCALIDETIVTQQDPSYFNLQNAWLISPLQLSLFGSQLAGYQFFEILEQLRSRGKDRLAALEVFHYCLLLGFQGKYRIESIESLNHLVARVGDEIDYLKGKKVAFSPFSAIPDQIRNIIHRELPFFWILIFLLIFALLTFAGLRFMLNNQNDKALSTYQNVISAPQEQAHITIYLP
B2: TssB fused to pTRG (plasmid pTB) (protein, UniProt R9RIN9 1-167)
chain: MAKRESVQKKLQRIRPPRVQLTYDVEIGDAKEAKELPFVVGVMGDFSAASELERTKLKDKKFINVDLDNIDEVMESLSPRAAFQVDNTLTEEGGKMAVDLTFKSMEDFRPENVVQQVDPLKKLVEARERLTDLRNKISNSERLEDLLDEVLKNTDQIRKLSAEADHE

How the values were obtained:
Test in all cases: two-hybrid; BacterioMatch II bacterial two-hybrid system; AsaA or its fragments on pBT, partners on pTRG; XL1-Blue MRFʹ; growth on M9 His-dropout dual-selective medium with Sm (12.5 μg/ml) and 3-AT (5 mM), 30 °C, 24 h
[1] = biological target: T1, AsaA 25th–110th aa fused to pBT (Acinetobacter baumannii ATCC 17978)
[2] = biological target: T2, AsaA 70th–110th aa fused to pBT (Acinetobacter baumannii ATCC 17978)
[3] = biological target: T3, AsaA 70th–150th aa fused to pBT (Acinetobacter baumannii ATCC 17978)
[4] = biological target: T4, AsaA 110th–150th aa fused to pBT (Acinetobacter baumannii ATCC 17978)
[5] = biological target: T5, AsaA 25th–150th aa fused to pBT (Acinetobacter baumannii ATCC 17978)
[6] = biological target: T6, AsaA 25th–190th aa fused to pBT (Acinetobacter baumannii ATCC 17978)
[7] = biological target: T7, AsaA 25th–70th aa fused to pBT (Acinetobacter baumannii ATCC 17978)
[8] = biological target: AsaA excluding the N-terminal leader, fused to pBT (plasmid pBA) (Acinetobacter baumannii ATCC 17978)

Molecule | binding [1] | binding [2] | binding [3] | binding [4] | binding [5] | binding [6] | binding [7] | binding [8]
TssM_(1302(436–1041)) fused to pTRG (plasmid pTM_(1302(436–1041))) (Acinetobacter baumannii ATCC 17978) (domain or fragment) | no binding | no binding | binds | no binding | binds | binds | no binding | 
B1 |  |  |  |  |  |  |  | no binding
B2 |  |  |  |  |  |  |  | no binding

These are yes or no findings as the source states them, for the method shown. For part of these data: Binding can be weak; no strength is given. Where a sequence is shown, tags or fusion partners need not be part of it.
